Data published in patent publication US20160251636.

Amino acid sequences for entries named in this document (tags omitted). A change or cut given only in a name is not applied to a line headed by its entry.
UniProt O14746: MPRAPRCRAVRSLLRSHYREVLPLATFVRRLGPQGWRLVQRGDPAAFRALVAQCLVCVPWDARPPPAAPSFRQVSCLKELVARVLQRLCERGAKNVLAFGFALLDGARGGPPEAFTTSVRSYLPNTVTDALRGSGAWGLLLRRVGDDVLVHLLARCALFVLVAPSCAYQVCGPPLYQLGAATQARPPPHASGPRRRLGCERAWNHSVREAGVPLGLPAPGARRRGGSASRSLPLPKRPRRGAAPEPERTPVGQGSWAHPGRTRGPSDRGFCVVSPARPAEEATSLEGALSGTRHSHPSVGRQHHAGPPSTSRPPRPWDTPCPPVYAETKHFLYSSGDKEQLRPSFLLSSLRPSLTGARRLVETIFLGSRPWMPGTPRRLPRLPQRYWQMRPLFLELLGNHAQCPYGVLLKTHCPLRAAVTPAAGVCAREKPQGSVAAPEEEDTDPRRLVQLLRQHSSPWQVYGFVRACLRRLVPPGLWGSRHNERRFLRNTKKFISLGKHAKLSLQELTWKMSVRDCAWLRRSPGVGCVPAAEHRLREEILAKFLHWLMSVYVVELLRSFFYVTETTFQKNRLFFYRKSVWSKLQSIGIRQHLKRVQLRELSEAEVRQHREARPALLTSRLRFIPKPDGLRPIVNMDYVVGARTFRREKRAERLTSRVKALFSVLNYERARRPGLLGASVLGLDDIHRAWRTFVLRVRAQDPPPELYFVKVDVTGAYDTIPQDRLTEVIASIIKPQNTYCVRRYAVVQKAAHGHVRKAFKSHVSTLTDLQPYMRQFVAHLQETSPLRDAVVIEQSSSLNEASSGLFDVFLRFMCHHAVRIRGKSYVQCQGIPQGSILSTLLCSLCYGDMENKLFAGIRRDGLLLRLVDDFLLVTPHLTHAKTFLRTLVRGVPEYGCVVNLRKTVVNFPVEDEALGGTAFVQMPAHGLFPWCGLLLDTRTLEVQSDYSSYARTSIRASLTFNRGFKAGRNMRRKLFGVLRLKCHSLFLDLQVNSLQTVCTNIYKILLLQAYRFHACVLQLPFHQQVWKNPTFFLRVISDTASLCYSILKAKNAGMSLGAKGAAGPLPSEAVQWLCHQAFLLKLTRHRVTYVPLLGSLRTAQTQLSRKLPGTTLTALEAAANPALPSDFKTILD

Legend:
[1] = target: cMBP-hTERT (human telomerase reverse transcriptase) (Homo sapiens) (UniProt O14746); test: EMSA; conditions: 1 ug protein with 0.5 ug hTR in 20 ul, 1 h; 1.2% agarose 1xTBE; protein prepared with RNase A gives aggregates in wells; purified recombinant protein; label: 32P (alpha-32P-CTP, internal) in EMSA
[2] = target: cMBP-hTERT (human telomerase reverse transcriptase) (Homo sapiens) (UniProt O14746); test: activity assay; conditions: telomerase activity reconstituted with 500 ng hTR and 100 ng protein (direct assay, TRAP, qTRAP); qTRAP around 9000 fold higher than in one 293T cell; purified recombinant protein; label: 32P (alpha-32P-CTP, internal) in EMSA

## GAGUGACUCUCACGAGAGCCGCGAGAGUCAGCUUGGCCAAUCCGUGCGGUCGGCGGCCGCUCCCUUUAUAAGCCGACUCGCCCGGCAGCGCACCGGGUUGCGGAGGGUGGGCCUGGGAGGGGUGGUGGCCAUUUUUUGUCUAACCCUAACUGAGAAGGGCGUAGGCGCCGUGCUUUUGCUCCCCGCGCGCUGUUUUUCUCGCUGACUUUCAGCGGGCGGAAAAGCCUCGGCCUGCCGCCUUCCACCGUUCAUUCUAGAGCAAACAAAAAAUGUCAGCUGCUGGCCCGUUCGCCCCUCCCGGGGACCUGCGGCGGGUCGCCUGCCCAGCCCCCGAACCCCGCCUGGAGGCCGCGGUCGGCCCGGGGCUUCUCCGGAGGCACCCACUGCCACCGCGAAGAGUUGGGCUCUGUCAGCCGCGGGUCUCUCGGGGGCGAGGGCGAGGUUCAGGCCUUUCAGGCCGCAGGAAGAGGAACGGAGCGAGUCCCCGCGCGCGGCGCGAUUCCCUGAGCUGUGGGACGUGCACCCAGGACUCGGCUCACACAUGC [hTR (human telomerase RNA)]
[1]
  binding result: binds
[2]
  activity on this sequence: active

The exact form of at least one protein or probe is not confirmed.
